Measured values: PubChem BioAssay AID1347423 (Functional Genomics Laboratory (NCATS/FGL), 2020)
Out of some 52,000 sequences screened, about 210 (0.4%) were called active.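 Rule for the calls: active = gene whose silencing raises cell survival under the drug, median off-target-corrected z-score across its silencing RNAs 2 or more; inactive = the rest.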 Some of the results follow.

assay: Resistance to Poly (ADP-Ribose) Polymerase inhibitor: Gene Identification via Genome-wide siRNA Screen; settings: mouse BRCA2 R2336H ES cells, olaparib, CellTiter-Glo viability; active compounds read high
Text: The role of Poly (ADP-Ribose) Polymerase (PARP) proteins in DNA repair has been elegantly utilized for the synthetic lethality-based treatment of BRCA-deficient tumors by PARP inhibitors. PARP inhibitors are now being used for treatment of BRCA-deficient breast and ovarian cancers. […] While several mechanisms of drug resistance have been identified, majority of these tumors develop drug resistance due to unknown causes. To identified novel regulators of chemo-resistance in BRCA2-mutated cells, we performed a genome wide siRNA library screen. We have found ES cells expressing a hypomorphic allele of BRCA2 to be hypersensitive to PAPP inhibitors (such as olaparib). We used ES cells expressing a mutant allele of BRCA2 that has a single amino acid substitution at position 2336 (arginine to histidine, R2336H). The screen was conducted using an Ambion (Thermo) Silencer Mouse Genome siRNA collection. The library targets 17,575 mouse genes with 3 siRNAs per gene. TET2 (E130014J05Rik) was identified as a top candidate.
Transfections were performed in 384 well plates (Corning 3707). Plates were coated with 0.1% gelatin in H2O overnight at ambient temperature. Gelatin solution was aspirated (BioTek EL406) and siRNAs were printed using a Bravo VPrep liquid handler integrated within a BioCel automation platform (Agilent). Cell viability was measured using CellTiter Glo (Promega). For transfections, […] of serum free media containing Lipofectamine RNAiMax […] was added to wells containing siRNA (0.8pmol). Lipid and siRNA were allowed to complex for 45 min at ambient temperature before addition of 1000 cells in DMEM, 30% FBS to yield final transfection mixtures containing 20 nM siRNA in DMEM, 15% FBS. PARPi (olaparib, AZD2281) was added 48 h post-transfection (500 nM) and viability (CellTiter Glo, Promega) was assayed 72 h later on a PerkinElmer Envision 2104 Multilabel plate reader. Ambion Silencer Select Negative Control #2 was incorporated on all screening plates (16 wells) and the median negative control value on each plate was used for normalization. An siRNA targeting Trp53 was used as a positive control. This control yielded a median protective effect of ~1.9 fold versus negative control throughout the screen. The median absolute deviation (MAD) based z-score was calculated for each siRNA. Genes were then ranked by taking the median value for all siRNAs tested against a given gene. Scores were also adjusted for seed-based off-target effects to help deprioritize likely false positives.

Sequence | z-score
GGCACAUCUCCCUAACACUTT against 2610528K11Rik | inactive: 0.06
UCACAAGUACAGAUCUGAATT against LOC432736 | inactive: 0.297
GGUCCUAUGGAUUAAUGCUTT against Wisp1 | inactive: 1.7
GGAGCAGAAGUCAAUCAGGTT against Myo1b | inactive: 0.0119
GGGAAAAUGCCAAGUGGAATT against Med8 | inactive: 0.0539
GCCCAGAAUGCUCACUAAATT against Sln | inactive: 0.656
AACAGCAUCUUUGUGGUCCTT against Ins1 | inactive: -0.451
GGCUUAAGCAGACGUGUCATT against Lhx8 | inactive: -0.198
GGUAUGUAACUUCUUCAUUTT against 6430527G18Rik | inactive: 0.0592
GGUUUUCCCAUGAAGCAAGTT against Rps6 | inactive: -2.82
GAAGAUUCUCCAUUGUUUGTT against 1110031B11Rik | inactive: -0.268
GGCACAAAGCAAGAUUACCTT against Cebpz | inactive: -1.8
GGUGUGACACCUAAGAUGATT against AW212607 | inactive: 1.39
GGGCAACUUUUUGAUAUUCTT against Btbd14a | inactive: -0.496
GGCCUAUGUACCCUACCAATT against Enpp1 | inactive: -0.811
GGGAAGUUGUCAAUACCUGTT against Sra1 | inactive: 1.02
GCCUCAACCUGAUUAUCACTT against Enpp7 | inactive: 1.83
GAAAUAUUUCUCAUCCUUGTT against Upk1b | inactive: 0.93
GGCAACCAGAUAUUUGUUATT against Myef2 | inactive: -0.593
GGAUGCUUUACCAAUGGUUTT against Mbtps2 | inactive: -0.873
GGUACAAAGAUGGUUGCGATT against AU016977 | inactive: -1.36
GCCCGAUUAAAAUAAAUUGTT against Arih2 | inactive: 0.862
CAUUUCGCCCUGGAUAGUGTT against Olfr523 | inactive: 1.99

Sequence | z-score
GGAGAUGCAUACCAAAGAUTT against 1700019I23Rik | inactive: -0.86
GGACUUGGAGAGCAAAAGCTT against Tmem16b | inactive: -0.46
GCUAUGUUCUUGGAUGAUUTT against V1ra4 | inactive: 0.131
CCAGCUAAUUACUCAGCCUTT against Lyzl4 | inactive: 0.324
GCAAAUUGUAUUAUAGAGCTT against Foxo1 | inactive: 0.777
GGAGUUUGUGUUCCUGACGTT against Chst10 | inactive: -2.44
GGCUGGACCAAAUUUGGUATT against MGI:1915703 | inactive: 0.75
GGUCCUGCUUCGUUAUCAGTT against Aldh6a1 | inactive: -0.297
GGAGUACGAGAAGAGCUCUTT against Kcnq2 | inactive: 1.34
GGGAGGACACUAUUUGAUUTT against Slco2b1 | inactive: 0.868
GCACUGUGGUCCAUACUACTT against Olfr1002 | inactive: -0.575
GGCCAUGAAAUGAAUUUCUTT against 2410141K09Rik | inactive: -0.0342
GCACCGUUGAAGUCAAGGUTT against Tdrd6 | inactive: -0.87
GGAGUUCAUCCUCACAGAUTT against Vdr | inactive: -0.395
GCUGAAAUCCAGGAUAGAGTT against Zw10 | inactive: 0.0178
GGCUAAAACUACAAAGAAGTT against Rpl36a | inactive: -0.69
GCUGAAAACUAUGAUGGCCTT against Nfkbib | inactive: 0.87
AACCUAACCAUUAUCCUCCTT against Olfr803 | inactive: -0.642
CCAGAACGCGGAGCAAAUUTT against Sec63 | inactive: -0.655
GGGUAGUUUUAAUUAAGCCTT against Lims1 | inactive: -0.11
GCUCUCGAGAGCCAAAGAATT against BC024582 | inactive: -1.6
CGACAUCUCUAAAGUUAAATT against 4933424A10Rik | inactive: -0.0655
GGCUUCCAGAAUUCAAAUUTT against 1110060F11Rik | inactive: -1.07

Some of the entries so far, as comma-separated lines.
Sequence,z-score
GCACUGUGGUCCAUACUACTT against Olfr1002,inactive: -0.575
GGCCAUGAAAUGAAUUUCUTT against 2410141K09Rik,inactive: -0.0342
GCACCGUUGAAGUCAAGGUTT against Tdrd6,inactive: -0.87
GGAGUUCAUCCUCACAGAUTT against Vdr,inactive: -0.395
GCUGAAAUCCAGGAUAGAGTT against Zw10,inactive: 0.0178
GGCUAAAACUACAAAGAAGTT against Rpl36a,inactive: -0.69

The list goes on.

Sequence | z-score
GGCAGUUAUUCAGAAUUGATT against Hirip5 | inactive: 0.85
GGACGAGAACAUCUUAAUCTT against Pim1 | inactive: 0.127
GGAGGUGUUCAUUGAAGUCTT against D11Ertd603e | inactive: 0.0966
GGCAGGCAGACGAAUGUUCTT against Tbx1 | inactive: -0.174
GGUAUUACCACGACAGGUATT against Usp42 | inactive: -0.95
GGACUUGGUCAAUCUGACATT against AI841794 | inactive: -0.0165
GGAAUUCGCCAACUGGCUGTT against Slc14a1 | inactive: 0.118
GGGCAAUUUGGAGCUUACCTT against Erbb2 | inactive: -0.961
GACACUACUCACAUCAGAUTT against Hes3 | inactive: 0.958
GGUUACCUGUGCUAGAAAATT against Zswim5 | inactive: -0.494
GGUGAAGAGUUCAAACAUCTT against Atp9a | inactive: 0.602
GGCUAUGAGUGCCAUAUCCTT against Wfdc1 | inactive: 1.04
GGCCGUUCUGUUGACCUUATT against 9230106D23Rik | inactive: -0.161
CCUGCUAUGUAAUAUAGAUTT against Eef2k | inactive: -0.327
GGUGAUCAGCAUGGUGGGUTT against Pold1 | inactive: -1.47
GGAGCUGUUUGGACCUUCUTT against Tsrc1 | inactive: -1.73
CGGUAGAGCGCAAAGAUUATT against Nef3 | inactive: -0.348
GGGUGAAUUUGAUUCGCUGTT against BC022765 | inactive: 0.0055
GCAUGCAUUCGUGAAGAAUTT against BC042549 | inactive: -0.938
GUCUUCUAACCAGGUAAAGTT against Tgoln2 | inactive: 1.05
GGCACCUGAGCGAUUUGAUTT against D8Ertd812e | inactive: -0.292
